# Hit rate of the full screen: of about 31,000 sequences, about 1,400 (4.5%) were called active.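 How the source made its calls: active means median seed-adjusted z-score above 1 or below -1; inactive means the rest.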 The list shows a part of the results.
# Test: Novel Modifiers of Survival Motor Neuron (SMN) Protein: Gene Identification via Genome-wide siRNA Screen
# Settings: HEK293T SMN2-luciferase reporter, siRNA knockdown, 72 h; actives lie on both sides
# In short: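 Each of three siRNAs per gene is reverse-transfected (1 pmol) into reporter HEK293T cells whose luciferase output tracks SMN protein level. After 72 h culture, ONE-Glo luminescence is control-normalized, log10-transformed and MAD-standardized; Common Seed Analysis deprioritizes seed-driven hits.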
row,Sequence,median seed-adjusted z-score
1,CACUAAACAUCGAAUAAGATT against ZNF616,inactive: -0.0874
2,GAUUGUGGAUGUAAUAGGATT against PRKAR2A,inactive: 0.213
3,ACAAGUAUGUGAACAUGCATT against NDUFS8,inactive: -0.467
4,AGAUGAAUGUGAAGGUGCUTT against MYL6,inactive: -0.228
5,GCCGUGCUGAUGGAGAGUATT against MFAP4,inactive: -0.28
6,GAUCUUCGGUGAAUCAGAATT against MRC2,active: -1.34
7,CAGAUAUUCCAAAAGGCUATT against TXNL1,inactive: -0.554
8,CUCAACCUUUCAUCCUUUATT against PCGF3,inactive: 0.876
9,GUACUUAUAUGAACGUAUUTT against CHD8,inactive: -0.158
10,GAUCAACUCAACUUACUGATT against ZNF561,inactive: -0.00904
11,GUGCAUCCGUACUCCCAAATT against CTGF,inactive: -0.181
12,GAACGUGCAGGGUGAUUAUTT against ASS1,inactive: 0.0886
13,GUUUCGAAAUUCAUCUGUUTT against CUTC,inactive: -0.377
14,GGAACUUACGAUGCAGGAATT against GALNT13,inactive: -0.0149
15,GAAGAACCCUGGUCUUUCATT against CARD14,inactive: -0.104
16,GCUUCAUGAUUGUAUCCAATT against GCLM,inactive: 0.0509
17,CGGUCUUGGUUAUCCUCAUTT against KCNA5,inactive: 0.206
18,UGGGUGCUGUGAUAAACAATT against SLC1A3,inactive: -0.421
19,GCACAUUGAUCUUACCCAATT against CYP2U1,inactive: 0.144
20,GGUAUUCCUGUUCAACAAATT against ZNF235,inactive: 0.348
21,CCAGUACAGGUGGAUCUAATT against MED1,inactive: -0.855
22,GAGCUUCACUCAAAAAUCATT against ZNF160,inactive: -0.454
23,GAAGCGACUGUUUUAGAAATT against EIF4E3,inactive: 0

row,Sequence,median seed-adjusted z-score
1,GGUCGUAGGUUCUUAAGAATT against IMP3,inactive: 0.0239
2,GCUGUAUUCUCAAUCCUAUTT against ADCY8,inactive: 0.103
3,GAGUACGAGUGGUAAAGCATT against SELI,inactive: 0
4,GAAAUGCGGUUGCUGAAGATT against SIX5,inactive: 0
5,AUAAAUACCUCGGACAUUATT against EIF1AX,inactive: 0.878
6,CAAUUUUAAGAGGAAGCAATT against PRODH2,inactive: 0.817
7,UCAAUACUGUGGGUUCUUATT against FBLN2,inactive: 0.176
8,ACCCACUCCUAAAAACUCATT against NDUFB4,inactive: -0.697
9,GAACUAUCCUAUCCCUGAATT against SORD,inactive: 0.17
10,CCACCAUGAUCAAAAUGGATT against SALL3,inactive: -0.133
11,CCAUCCCACUGGUCACAUUTT against SLC7A8,inactive: -0.134
12,GCUAUAUCCAGGUCACAGATT against PRKACB,inactive: -0.258
13,GGUCAUACACGGGAUCUCUTT against SLC30A2,inactive: -0.402
14,GGCUAGGAAUGUGCAGACATT against EXO1,inactive: 0.547
15,CCUGGACGAUGACGGAUUATT against SETD7,inactive: -0.0831
16,ACAUCUUCCUCACGUCCUATT against PLXNB2,inactive: -0.237
17,GCACAUCCGAAGUGAGUUUTT against MTHFR,inactive: 0
18,GACUUGAGCUAAAUGGUCATT against SIAH1,active: 1.5
19,GCUUAUGAACUAACGAGAATT against USP13,inactive: -0.044
20,GGUUCAGUCUAUACAACAATT against DSC2,inactive: -0.0641
21,GGUGCUGGAUGUUAACGAUTT against PCDHB15,inactive: 0.0154
22,GGAUGACCAGGGUCUAUAATT against FMO4,inactive: -0.359
23,GCUGGACUCUUUGGGUUCATT against CDH26,inactive: 0

row,Sequence,median seed-adjusted z-score
1,CAAUAGCAGUGCUAUGUUATT against ARPC5,inactive: -0.479
2,GCAUAUCCAUAUACAACAATT against PDZD8,inactive: 0.0582
3,AGAUUUUCAAGGGAGCAAATT against EWSR1,inactive: -0.654
4,CAACGAUGGUGUACUACAATT against ABCC9,inactive: 0.376
5,CUUCACUAUUUACCUCUUUTT against 3-Mar,inactive: 0.069
6,GCAGUAACCUUAUACACUATT against BTNL9,inactive: 0.0189
7,AGUCAGCUCCGAUACUUCATT against CAPN10,inactive: 0.364
8,GCUCAUCUCUCACGACAAUTT against HOXC9,inactive: 0.395
9,GGAUUUCUUCAUCCCGCUUTT against GSX2,inactive: -0.621
10,AGAGUGCCGUCAUUCCGGATT against BMP4,inactive: -0.612
11,GAUUUCCAGUAGUCGAAAATT against CD46,inactive: -0.0278
12,CGAACGGACUUGAACUACATT against DNAH5,inactive: -0.45
13,CGUUGGAUGAGGUGGAUAATT against PRKCQ,inactive: 0.692
14,GGGCUAAGCGAUCCAGUAATT against HNF4G,inactive: 0.01
15,GAAGGAUUAGAAACCGCAATT against RNF144,inactive: 0.0938
16,GCCCUUAUUCCGAUCUACATT against ERCC1,inactive: -0.566
17,AGAAAGUGUACGACCCAAATT against NUCB1,inactive: 0.232
18,CCAUAACCGCCACACCCUUTT against GPR153,active: -1.08
19,GGGCUACAAUAGUAAGUUUTT against ZNF224,inactive: 0.0073
20,AGUUGUAAAUUUACAAAGATT against UNC119,inactive: 0.171
21,CUCUGAUGAUGUCGAAAAATT against LGR5,inactive: 0
22,GCUAGAUUUUCUUCCAGUATT against ZFAND2A,inactive: 0
23,GCAUGGUAAUUUAUAGUUUTT against NGF,inactive: -0.325

# Reformatted as tab-separated lines: entries from further up
row	Sequence	median seed-adjusted z-score
7	AGUCAGCUCCGAUACUUCATT against CAPN10	inactive: 0.364
8	GCUCAUCUCUCACGACAAUTT against HOXC9	inactive: 0.395
9	GGAUUUCUUCAUCCCGCUUTT against GSX2	inactive: -0.621
